Source: article doi:10.1101/2021.04.21.440798
These are yes or no findings as the source states them, for the method shown. Binding seen in cells or lysates may run through a third protein. Here binding means that the protein was enriched with, or labelled near, the bait; the list need not be complete.

Amino acid sequences for entries named in this document (tags omitted). Residues count along the entry.
UniProt Q93050: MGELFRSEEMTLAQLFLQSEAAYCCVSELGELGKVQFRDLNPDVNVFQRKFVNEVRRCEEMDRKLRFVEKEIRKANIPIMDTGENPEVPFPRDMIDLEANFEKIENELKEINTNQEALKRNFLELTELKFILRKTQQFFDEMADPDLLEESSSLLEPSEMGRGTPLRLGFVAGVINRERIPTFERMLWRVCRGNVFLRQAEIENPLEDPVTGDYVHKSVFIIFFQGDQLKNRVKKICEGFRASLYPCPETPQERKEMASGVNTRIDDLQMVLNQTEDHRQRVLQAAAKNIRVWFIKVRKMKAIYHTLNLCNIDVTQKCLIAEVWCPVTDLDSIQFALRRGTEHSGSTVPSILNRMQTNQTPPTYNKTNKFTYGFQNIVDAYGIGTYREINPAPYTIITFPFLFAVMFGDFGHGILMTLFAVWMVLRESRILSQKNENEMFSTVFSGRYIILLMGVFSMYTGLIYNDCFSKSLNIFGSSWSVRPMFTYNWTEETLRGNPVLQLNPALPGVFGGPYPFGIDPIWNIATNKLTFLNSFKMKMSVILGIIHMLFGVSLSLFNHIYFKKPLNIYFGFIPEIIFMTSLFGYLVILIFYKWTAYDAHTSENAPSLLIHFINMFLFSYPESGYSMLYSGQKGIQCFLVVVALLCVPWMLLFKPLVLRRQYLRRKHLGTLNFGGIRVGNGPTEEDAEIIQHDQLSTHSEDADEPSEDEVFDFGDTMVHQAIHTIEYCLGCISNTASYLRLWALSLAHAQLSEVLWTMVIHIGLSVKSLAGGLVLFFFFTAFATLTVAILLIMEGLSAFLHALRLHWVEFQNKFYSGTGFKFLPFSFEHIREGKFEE
UniProt P46379: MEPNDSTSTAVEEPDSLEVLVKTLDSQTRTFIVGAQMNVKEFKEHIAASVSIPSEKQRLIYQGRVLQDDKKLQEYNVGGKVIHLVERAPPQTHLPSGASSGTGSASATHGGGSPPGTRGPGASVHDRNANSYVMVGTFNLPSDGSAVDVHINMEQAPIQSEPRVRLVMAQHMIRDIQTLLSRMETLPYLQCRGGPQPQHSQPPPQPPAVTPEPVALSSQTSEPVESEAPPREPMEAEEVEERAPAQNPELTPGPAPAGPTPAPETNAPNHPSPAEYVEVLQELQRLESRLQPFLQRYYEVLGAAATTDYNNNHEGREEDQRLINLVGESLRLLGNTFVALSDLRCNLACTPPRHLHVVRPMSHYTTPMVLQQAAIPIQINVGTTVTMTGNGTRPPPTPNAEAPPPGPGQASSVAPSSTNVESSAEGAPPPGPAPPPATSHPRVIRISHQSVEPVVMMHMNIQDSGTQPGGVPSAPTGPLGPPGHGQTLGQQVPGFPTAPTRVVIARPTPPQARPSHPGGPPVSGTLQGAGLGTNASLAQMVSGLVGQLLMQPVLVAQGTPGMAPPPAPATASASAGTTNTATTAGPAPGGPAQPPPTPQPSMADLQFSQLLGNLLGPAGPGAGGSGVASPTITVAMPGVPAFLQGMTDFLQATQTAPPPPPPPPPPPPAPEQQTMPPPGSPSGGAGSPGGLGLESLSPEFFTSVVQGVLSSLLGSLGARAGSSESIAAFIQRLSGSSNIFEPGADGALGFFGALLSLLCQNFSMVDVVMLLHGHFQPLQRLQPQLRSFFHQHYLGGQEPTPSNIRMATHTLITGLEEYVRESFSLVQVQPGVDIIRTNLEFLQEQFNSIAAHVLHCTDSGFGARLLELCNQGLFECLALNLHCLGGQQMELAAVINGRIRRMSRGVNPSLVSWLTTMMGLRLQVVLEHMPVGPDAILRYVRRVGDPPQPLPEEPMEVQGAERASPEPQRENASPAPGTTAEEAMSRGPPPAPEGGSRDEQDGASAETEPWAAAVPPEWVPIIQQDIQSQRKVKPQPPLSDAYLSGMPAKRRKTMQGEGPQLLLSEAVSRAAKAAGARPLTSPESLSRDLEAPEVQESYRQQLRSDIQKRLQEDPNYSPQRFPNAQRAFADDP
UniProt P53618: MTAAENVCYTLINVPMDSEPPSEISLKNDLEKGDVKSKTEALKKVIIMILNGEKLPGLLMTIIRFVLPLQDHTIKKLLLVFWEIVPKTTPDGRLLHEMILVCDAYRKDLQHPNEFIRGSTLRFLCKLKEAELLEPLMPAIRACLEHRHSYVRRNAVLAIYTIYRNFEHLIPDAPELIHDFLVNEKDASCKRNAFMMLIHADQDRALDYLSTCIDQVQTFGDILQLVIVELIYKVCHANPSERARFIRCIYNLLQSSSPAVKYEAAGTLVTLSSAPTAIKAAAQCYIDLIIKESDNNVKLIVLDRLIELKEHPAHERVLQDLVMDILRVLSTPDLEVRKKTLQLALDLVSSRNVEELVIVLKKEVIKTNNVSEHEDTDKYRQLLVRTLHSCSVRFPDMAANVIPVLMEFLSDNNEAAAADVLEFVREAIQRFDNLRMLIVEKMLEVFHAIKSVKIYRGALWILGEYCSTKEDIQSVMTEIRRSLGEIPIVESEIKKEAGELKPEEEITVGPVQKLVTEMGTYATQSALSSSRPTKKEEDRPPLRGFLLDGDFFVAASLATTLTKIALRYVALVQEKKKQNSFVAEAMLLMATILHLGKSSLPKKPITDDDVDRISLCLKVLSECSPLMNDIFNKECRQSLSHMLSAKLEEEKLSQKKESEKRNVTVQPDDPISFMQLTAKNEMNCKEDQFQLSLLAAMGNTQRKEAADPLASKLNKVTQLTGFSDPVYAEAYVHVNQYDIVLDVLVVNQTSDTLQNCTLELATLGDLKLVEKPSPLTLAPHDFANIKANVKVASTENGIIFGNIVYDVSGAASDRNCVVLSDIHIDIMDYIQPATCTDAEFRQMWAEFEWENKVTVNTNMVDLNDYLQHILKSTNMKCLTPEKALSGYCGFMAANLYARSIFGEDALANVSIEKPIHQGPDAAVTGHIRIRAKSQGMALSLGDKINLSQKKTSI
UniProt P27824, residues 21-592: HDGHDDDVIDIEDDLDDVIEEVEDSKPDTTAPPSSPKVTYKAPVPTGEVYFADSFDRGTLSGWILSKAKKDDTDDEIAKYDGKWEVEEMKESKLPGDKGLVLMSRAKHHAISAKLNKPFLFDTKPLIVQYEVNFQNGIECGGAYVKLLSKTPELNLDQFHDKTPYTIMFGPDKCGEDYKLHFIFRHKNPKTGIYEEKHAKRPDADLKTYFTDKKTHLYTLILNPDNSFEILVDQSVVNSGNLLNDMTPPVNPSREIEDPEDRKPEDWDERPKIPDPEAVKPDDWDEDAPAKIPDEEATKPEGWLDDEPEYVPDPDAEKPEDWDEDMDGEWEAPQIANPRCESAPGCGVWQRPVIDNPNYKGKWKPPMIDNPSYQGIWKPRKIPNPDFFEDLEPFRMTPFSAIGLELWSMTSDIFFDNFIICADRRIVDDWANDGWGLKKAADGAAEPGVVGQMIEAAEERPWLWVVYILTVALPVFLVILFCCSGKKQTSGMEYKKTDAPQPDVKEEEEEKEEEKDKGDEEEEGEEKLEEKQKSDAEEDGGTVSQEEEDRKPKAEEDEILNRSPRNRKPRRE
UniProt Q8IWV8: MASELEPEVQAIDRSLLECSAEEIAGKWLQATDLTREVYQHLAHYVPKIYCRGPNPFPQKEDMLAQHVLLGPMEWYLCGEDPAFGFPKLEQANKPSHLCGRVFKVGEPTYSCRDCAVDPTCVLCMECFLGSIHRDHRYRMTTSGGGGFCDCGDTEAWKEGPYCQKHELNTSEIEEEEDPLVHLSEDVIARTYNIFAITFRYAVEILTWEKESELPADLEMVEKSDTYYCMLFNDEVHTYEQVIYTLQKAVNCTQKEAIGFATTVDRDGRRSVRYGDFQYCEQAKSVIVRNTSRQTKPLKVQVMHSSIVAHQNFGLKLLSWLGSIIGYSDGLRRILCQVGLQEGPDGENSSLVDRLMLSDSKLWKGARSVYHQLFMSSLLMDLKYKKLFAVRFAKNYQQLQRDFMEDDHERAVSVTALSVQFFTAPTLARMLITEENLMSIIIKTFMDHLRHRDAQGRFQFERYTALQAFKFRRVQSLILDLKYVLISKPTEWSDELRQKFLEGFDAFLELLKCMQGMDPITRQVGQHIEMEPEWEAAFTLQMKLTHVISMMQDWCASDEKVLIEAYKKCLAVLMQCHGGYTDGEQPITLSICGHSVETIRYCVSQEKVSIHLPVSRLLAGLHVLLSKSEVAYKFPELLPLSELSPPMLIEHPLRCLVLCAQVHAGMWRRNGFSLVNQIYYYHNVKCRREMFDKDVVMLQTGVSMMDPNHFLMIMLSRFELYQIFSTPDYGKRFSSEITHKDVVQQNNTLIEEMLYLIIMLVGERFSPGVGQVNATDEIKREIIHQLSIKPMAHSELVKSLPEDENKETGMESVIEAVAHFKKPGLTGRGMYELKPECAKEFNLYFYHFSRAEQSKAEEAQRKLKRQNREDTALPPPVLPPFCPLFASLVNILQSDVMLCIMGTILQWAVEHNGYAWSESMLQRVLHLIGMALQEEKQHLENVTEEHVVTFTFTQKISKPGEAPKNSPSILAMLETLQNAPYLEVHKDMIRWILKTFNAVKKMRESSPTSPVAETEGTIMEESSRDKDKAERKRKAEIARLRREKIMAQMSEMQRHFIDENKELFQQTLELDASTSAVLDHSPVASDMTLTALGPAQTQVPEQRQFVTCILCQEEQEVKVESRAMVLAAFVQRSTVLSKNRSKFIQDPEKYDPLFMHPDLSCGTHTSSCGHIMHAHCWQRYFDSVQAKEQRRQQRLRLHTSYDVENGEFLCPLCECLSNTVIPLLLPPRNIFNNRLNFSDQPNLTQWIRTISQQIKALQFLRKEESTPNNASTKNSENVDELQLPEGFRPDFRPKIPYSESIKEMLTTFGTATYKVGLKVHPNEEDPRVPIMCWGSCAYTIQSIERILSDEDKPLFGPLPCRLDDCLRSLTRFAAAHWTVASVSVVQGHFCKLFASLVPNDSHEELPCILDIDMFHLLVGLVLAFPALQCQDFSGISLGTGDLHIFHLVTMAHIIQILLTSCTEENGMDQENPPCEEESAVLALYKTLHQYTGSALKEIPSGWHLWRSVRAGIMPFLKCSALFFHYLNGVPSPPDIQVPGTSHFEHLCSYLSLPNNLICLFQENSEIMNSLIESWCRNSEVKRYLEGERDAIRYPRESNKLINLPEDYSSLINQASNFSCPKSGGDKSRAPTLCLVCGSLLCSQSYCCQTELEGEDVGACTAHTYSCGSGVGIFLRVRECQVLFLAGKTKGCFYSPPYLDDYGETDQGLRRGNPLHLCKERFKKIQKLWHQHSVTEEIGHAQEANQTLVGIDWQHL
UniProt Q9UHD2: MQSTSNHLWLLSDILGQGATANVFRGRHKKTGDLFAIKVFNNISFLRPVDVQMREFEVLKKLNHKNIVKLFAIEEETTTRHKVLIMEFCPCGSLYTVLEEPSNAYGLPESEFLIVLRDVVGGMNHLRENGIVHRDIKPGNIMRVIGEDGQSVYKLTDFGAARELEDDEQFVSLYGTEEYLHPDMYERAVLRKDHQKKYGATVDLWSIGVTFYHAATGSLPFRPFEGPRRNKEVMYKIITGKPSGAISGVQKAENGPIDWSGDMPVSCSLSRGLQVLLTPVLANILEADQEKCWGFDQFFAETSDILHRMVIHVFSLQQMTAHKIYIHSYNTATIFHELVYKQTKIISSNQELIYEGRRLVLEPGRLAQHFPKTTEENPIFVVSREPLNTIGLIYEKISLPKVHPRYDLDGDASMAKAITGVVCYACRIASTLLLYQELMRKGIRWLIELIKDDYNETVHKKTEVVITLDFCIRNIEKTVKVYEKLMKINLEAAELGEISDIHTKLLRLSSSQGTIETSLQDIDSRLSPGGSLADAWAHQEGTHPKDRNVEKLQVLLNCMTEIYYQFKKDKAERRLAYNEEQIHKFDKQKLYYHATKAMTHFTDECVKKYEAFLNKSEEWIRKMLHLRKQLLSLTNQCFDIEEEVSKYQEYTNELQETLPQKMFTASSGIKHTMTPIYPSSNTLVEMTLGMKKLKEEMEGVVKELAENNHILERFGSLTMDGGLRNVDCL

Molecular target: GFP-T6BP (TAX1BP1 / TRAF6-Binding Protein fused to GFP) (UniProt Q86VP1)
Test: affinity purification with mass spectrometry

Row | Substance | binding
1 | ATP6V0A1, a subunit of the vATPase (from UniProt Q93050 1-837) | binds
2 | BAG6 (from UniProt P46379 1-1132) | binds
3 | COPB1 (from UniProt P53618 1-953) | binds
4 | Calnexin (CANX), endogenous (from UniProt P27824 21-592) | binds
5 | E3 Ub-ligase UBR1 (from UniProt Q8IWV7 1-1749) | binds
6 | E3 Ub-ligase UBR2 (from UniProt Q8IWV8 1-1755) | binds
7 | Sequestosome-1 / p62 (SQSTM1) (from UniProt Q13501 1-440) | binds
8 | kinase TBK1 (TANK-binding kinase-1) (from UniProt Q9UHD2 1-729) | binds
